The assay addresses T1, RBM39-Flag (RNA-binding Motif Protein 39, Flag-tagged) (human (cDNA from Jurkat cell mRNA)) (UniProt Q14498).
T1 sequence: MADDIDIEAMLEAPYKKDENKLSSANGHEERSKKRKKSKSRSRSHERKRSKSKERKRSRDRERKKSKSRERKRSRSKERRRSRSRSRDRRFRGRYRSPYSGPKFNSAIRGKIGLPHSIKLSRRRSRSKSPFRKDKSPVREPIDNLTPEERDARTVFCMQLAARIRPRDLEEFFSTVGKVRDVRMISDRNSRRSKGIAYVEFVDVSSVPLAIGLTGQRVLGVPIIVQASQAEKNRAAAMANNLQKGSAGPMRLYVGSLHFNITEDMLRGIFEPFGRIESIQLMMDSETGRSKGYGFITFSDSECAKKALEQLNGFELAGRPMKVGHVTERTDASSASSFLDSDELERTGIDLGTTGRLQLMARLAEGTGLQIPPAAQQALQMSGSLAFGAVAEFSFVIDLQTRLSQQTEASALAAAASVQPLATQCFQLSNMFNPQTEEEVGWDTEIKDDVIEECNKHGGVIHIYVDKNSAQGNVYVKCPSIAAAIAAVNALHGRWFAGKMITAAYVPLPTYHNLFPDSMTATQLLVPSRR
The experiment in a line: co-IP; HEK293T transfected with RBM39-Flag or YTHDC1-Flag and DDX5-HA or GFP-HA (control), 48 h; lysates immunoprecipitated with Flag beads, immunoblot; NP-40 lysis buffer. A general note: A western blot detects proteins with antibodies after separation by electrophoresis.

By UniProt entry, the sequences of proteins in these tests, tags left out.
UniProt P17844: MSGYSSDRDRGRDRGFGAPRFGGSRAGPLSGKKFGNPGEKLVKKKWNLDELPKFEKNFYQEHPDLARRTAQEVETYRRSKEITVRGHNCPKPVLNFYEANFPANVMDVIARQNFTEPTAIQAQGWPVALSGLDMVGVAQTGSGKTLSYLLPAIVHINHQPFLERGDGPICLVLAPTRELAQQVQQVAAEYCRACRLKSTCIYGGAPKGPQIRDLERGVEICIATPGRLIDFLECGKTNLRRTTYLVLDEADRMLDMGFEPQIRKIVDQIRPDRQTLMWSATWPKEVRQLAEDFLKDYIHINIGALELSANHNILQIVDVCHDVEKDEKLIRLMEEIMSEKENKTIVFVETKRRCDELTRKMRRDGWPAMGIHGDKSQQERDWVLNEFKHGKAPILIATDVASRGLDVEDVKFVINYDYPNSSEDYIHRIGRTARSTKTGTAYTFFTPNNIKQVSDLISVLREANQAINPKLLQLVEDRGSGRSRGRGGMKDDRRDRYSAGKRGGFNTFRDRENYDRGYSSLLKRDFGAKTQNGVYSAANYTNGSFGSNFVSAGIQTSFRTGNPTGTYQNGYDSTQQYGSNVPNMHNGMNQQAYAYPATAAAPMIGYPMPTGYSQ

No constants are given. Whether binding was seen depends on the method and setting. Binding seen in cells or lysates may run through a third protein. Some binding calls cover weakened binding; strength is not graded here. Sequences can lack the tags named with a protein.

Take DDX5-HA (from UniProt P17844 1-614): the binding result is listed as “binds”.

The values above are taken from article PMC12617877.
